The results in this text go back to the supplement of paper PMC11006884.

Chains of the proteins cited; added tags and fusions are not shown. Lines headed by an entry give the natural chain unless they say otherwise; changes in a name come on top.
UniProt O95983: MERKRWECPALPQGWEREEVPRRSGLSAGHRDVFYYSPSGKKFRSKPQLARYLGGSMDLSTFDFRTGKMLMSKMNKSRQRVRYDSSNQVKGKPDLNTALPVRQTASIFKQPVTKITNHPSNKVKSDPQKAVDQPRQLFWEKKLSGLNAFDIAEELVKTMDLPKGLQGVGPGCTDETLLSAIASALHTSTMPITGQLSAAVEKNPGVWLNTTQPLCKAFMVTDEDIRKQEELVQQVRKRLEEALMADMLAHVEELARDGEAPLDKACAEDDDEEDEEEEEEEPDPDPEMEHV
UniProt P00492: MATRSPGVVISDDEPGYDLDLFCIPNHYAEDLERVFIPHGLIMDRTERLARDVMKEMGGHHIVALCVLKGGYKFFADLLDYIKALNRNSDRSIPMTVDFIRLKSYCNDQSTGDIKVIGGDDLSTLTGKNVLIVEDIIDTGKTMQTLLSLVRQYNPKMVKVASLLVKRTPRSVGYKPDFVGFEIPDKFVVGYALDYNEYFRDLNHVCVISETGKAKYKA
UniProt O95239: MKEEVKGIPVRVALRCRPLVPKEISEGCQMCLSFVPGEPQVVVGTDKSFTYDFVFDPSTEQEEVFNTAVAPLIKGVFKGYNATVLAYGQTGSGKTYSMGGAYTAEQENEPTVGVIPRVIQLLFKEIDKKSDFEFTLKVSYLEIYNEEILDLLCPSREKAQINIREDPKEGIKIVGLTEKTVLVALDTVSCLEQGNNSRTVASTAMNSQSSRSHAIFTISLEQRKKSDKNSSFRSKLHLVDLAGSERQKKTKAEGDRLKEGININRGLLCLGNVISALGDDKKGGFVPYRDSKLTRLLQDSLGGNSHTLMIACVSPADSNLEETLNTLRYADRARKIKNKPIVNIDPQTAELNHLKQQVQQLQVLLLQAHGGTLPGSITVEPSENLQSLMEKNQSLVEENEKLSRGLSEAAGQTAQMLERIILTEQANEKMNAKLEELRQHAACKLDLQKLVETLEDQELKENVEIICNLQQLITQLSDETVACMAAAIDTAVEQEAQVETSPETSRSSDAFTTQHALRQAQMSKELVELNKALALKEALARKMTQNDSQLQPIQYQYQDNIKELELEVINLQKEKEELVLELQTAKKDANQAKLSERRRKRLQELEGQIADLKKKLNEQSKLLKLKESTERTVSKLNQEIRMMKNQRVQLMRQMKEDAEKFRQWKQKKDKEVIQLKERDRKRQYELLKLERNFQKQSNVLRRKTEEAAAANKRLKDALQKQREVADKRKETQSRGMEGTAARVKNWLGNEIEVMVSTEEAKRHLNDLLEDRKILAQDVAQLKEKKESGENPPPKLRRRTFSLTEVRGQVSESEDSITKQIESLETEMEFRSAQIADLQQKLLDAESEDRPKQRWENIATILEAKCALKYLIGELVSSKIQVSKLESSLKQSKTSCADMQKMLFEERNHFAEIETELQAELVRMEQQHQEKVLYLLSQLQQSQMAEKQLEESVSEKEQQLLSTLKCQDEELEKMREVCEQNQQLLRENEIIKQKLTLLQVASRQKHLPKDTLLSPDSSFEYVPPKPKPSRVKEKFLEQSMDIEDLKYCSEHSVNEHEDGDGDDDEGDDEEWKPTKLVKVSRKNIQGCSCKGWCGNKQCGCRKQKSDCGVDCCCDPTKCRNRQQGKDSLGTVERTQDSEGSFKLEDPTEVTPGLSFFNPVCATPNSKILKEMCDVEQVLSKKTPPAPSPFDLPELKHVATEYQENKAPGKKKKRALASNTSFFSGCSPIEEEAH
UniProt P05141: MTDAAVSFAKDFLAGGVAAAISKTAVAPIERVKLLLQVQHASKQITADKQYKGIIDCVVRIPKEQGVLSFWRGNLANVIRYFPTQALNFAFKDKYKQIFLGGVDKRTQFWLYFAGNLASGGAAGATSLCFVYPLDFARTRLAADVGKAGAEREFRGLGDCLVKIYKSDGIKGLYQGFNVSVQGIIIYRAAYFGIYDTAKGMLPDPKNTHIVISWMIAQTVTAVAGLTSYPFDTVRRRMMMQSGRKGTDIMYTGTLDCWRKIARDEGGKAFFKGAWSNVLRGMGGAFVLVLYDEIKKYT
UniProt P05386, whole entry, looked up: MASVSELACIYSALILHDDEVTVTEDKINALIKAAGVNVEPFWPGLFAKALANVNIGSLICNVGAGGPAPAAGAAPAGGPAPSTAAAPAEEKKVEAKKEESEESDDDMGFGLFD
UniProt P07814: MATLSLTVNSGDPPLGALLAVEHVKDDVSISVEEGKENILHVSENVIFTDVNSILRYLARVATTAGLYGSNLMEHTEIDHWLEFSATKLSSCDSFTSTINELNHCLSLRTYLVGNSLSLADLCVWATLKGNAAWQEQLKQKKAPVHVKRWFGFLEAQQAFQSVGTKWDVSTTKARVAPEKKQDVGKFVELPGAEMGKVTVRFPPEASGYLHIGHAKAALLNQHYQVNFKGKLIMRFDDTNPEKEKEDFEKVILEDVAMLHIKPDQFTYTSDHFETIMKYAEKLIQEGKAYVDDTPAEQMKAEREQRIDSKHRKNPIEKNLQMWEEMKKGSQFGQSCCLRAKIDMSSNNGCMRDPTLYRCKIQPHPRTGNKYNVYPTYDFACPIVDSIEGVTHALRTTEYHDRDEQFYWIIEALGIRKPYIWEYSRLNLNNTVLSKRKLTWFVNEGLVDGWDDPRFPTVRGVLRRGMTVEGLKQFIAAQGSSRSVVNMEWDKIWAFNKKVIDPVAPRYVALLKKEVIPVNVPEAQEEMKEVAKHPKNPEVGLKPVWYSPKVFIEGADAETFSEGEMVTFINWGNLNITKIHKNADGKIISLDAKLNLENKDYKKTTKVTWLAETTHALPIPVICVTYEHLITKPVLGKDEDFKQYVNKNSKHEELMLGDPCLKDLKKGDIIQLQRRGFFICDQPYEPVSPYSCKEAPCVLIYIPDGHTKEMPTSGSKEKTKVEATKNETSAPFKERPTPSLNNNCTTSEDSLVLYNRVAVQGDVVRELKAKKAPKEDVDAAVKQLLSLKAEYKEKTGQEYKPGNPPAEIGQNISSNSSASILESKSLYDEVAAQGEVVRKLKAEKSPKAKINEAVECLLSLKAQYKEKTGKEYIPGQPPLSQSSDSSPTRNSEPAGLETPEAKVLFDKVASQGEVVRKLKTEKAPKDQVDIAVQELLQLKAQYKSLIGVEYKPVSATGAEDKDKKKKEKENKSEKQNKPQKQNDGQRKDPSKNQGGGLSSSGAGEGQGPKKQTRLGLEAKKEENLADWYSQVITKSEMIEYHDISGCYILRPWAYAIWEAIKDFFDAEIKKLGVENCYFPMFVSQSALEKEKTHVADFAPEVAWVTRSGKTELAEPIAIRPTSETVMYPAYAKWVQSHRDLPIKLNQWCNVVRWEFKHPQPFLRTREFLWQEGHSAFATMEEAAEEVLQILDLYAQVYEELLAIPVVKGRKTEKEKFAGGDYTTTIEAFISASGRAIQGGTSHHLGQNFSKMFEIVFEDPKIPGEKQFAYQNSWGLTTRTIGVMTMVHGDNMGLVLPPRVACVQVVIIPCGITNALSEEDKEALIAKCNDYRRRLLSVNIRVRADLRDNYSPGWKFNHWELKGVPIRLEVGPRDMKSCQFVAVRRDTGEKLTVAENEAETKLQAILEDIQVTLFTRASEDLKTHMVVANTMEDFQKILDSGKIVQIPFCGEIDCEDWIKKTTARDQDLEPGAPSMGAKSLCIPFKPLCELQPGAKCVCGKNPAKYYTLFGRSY
UniProt O95881: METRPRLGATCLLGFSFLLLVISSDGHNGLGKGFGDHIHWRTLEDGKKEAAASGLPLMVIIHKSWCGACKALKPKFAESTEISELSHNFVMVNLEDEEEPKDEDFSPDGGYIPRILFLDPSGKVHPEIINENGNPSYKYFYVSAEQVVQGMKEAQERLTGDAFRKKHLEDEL
UniProt P04179: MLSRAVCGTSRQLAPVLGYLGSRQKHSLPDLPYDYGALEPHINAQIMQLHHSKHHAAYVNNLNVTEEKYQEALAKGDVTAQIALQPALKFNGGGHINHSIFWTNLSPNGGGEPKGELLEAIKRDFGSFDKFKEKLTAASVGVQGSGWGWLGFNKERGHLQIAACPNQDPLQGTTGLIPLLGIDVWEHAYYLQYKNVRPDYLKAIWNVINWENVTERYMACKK
UniProt O96008: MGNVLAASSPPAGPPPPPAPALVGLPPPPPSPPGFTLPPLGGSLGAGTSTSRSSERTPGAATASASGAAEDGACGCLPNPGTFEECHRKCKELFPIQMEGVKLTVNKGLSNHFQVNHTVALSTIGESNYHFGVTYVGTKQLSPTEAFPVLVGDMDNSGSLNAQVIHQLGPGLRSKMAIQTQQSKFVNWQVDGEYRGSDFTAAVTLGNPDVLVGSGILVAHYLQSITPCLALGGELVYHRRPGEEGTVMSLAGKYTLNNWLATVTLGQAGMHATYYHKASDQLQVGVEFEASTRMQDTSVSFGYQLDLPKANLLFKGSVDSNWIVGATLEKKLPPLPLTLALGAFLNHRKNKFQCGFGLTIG
UniProt O95336: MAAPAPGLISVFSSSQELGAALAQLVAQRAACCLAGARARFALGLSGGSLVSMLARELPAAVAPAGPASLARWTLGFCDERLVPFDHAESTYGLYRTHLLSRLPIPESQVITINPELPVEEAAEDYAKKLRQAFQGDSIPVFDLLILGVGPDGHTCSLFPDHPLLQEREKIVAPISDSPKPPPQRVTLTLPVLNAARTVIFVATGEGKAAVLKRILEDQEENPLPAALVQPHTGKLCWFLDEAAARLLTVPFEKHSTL
UniProt P07737, whole entry, looked up: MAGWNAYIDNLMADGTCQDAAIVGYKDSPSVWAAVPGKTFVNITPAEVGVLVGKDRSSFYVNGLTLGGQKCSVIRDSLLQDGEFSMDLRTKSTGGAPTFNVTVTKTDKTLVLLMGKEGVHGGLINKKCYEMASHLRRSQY
UniProt P07203, whole entry, looked up: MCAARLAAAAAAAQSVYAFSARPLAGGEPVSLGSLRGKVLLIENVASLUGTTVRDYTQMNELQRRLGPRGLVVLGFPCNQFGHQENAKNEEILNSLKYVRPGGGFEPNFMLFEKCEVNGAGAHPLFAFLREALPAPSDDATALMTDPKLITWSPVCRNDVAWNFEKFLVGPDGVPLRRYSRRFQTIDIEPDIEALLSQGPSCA
UniProt O96028: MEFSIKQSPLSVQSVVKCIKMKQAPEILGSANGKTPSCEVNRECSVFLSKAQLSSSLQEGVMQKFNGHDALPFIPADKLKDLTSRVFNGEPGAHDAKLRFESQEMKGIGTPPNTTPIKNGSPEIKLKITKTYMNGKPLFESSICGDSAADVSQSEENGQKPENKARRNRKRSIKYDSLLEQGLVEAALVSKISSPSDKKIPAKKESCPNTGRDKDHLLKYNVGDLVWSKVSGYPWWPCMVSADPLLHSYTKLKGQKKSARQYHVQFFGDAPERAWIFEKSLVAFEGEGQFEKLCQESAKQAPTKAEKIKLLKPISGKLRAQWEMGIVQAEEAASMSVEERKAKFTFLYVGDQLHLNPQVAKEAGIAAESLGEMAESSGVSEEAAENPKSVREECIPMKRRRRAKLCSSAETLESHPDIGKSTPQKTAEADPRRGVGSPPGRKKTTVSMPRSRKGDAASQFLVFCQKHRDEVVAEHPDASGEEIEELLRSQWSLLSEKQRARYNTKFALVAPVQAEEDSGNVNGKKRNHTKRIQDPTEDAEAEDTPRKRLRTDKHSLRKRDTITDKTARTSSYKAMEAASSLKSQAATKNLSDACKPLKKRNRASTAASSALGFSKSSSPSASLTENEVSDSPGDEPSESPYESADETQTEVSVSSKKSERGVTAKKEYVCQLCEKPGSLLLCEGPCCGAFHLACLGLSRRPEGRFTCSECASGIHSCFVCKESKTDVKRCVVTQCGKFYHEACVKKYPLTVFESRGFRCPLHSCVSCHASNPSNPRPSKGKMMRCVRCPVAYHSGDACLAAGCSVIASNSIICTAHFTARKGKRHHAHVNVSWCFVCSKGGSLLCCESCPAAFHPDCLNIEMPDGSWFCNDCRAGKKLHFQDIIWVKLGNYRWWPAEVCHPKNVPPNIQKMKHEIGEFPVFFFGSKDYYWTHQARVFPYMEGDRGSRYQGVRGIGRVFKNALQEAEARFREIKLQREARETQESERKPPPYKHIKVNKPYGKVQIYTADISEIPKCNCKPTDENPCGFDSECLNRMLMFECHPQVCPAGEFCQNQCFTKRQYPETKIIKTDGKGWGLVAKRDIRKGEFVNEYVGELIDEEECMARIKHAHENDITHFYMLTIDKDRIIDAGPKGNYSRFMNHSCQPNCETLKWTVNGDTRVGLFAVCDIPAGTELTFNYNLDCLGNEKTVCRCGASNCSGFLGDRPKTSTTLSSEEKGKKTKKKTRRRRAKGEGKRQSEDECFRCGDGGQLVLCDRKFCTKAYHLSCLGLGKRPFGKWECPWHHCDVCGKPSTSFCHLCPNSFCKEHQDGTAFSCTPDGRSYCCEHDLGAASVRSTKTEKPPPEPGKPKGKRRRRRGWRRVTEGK

The targets with a hit were mostly taken out for another list; the other results follow. The data scatter; read single values as rough. The entries are a selection whose mix differs from that of the whole data set.

Compound in this test: COC(=O)/C=C/c1ccccc1 [methyl cinnamate]
Nature of the test: log2 ratio of iodoacetamide-alkyne labeling of the cysteine site, DMSO over compound (competition); higher = stronger covalent engagement of the cysteine by the compound, active = 1 or more. As to conditions: 500 µM; treatment time 1 h; system: HEK293T cell lysate. A digest of the protocol:
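After 1 h at ambient temperature with vehicle or electrophile (500 µM), HEK293T lysate (2 mg/mL) was labelled for 1 h with iodoacetamide alkyne and clicked to sCIP-TMT reagents. Pooled samples were trypsin-digested overnight at 37 °C, streptavidin-enriched, acid-eluted and analysed by Orbitrap Eclipse LC-MS/MS with FAIMS, then quantified in FragPipe over three replicates with duplicate channels. A cysteine's log2 competition ratio is its mean control-channel over mean compound-channel reporter intensity. Cysteines quantified in only one replicate were not included.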
In the case of MBD3 C266 (UniProt O95983), the “log2 ratio of iodoacetamide-alkyne labeling” value (“log2 ratio” for short) was inactive: 0.139. As for PCNT C974 (UniProt O95613), the “log2 ratio” value is inactive: -0.0561. The value for HPRT1 C106 (UniProt P00492) was inactive: 0.354; that for KIF4A C1171 (UniProt O95239) was inactive: -0.11; that for UniProt O96017_C539 was inactive: 0.328. Then SLC25A5 C160 (UniProt P05141), with inactive: 0.138; and SMC2 C132 (UniProt O95347), with inactive: -0.0562; and ACSL3 C450 (UniProt O95573), with inactive: 0.0373. For RPLP1 C9 (UniProt P05386), the “log2 ratio” value is inactive: 0.0998.

With EPRS C1480 (UniProt P07814), the “log2 ratio” value is inactive: -0.128.

As for TXNDC12 C66 (UniProt O95881), the “log2 ratio” value was inactive: 0.238. As for NFAT5 C217 (UniProt O94916), the “log2 ratio” value is inactive: 0.295. As to SOD2 C164 (UniProt P04179), the “log2 ratio” value was inactive: -0.205.

Consider AP2A1 C970 (UniProt O95782), for which the “log2 ratio” value is inactive: 0.158. For the target FGFR1OP C244 (UniProt O95684), the “log2 ratio” value was inactive: -0.0289.

Consider TOMM40 C74 (UniProt O96008), for which the “log2 ratio” value was inactive: 0.184. Then UROD C35 (UniProt P06132), with inactive: 0.263. Consider UniProt O95758_C68, for which the “log2 ratio” value was inactive: -0.0318.

With HERC2 C1005 (UniProt O95714), the “log2 ratio” value was inactive: -0.271. For the target SMC2 C585 (UniProt O95347), the “log2 ratio” value was inactive: 0.404. Take RPLP0 C226 (UniProt P05388): the “log2 ratio” value was inactive: 0.407. The value for CNOT4 C175 (UniProt O95628) was inactive: 0.261. The value for SBF1 C896 (UniProt O95248) was inactive: 0.107; that for PGLS C32 (UniProt O95336) was inactive: 0.275. Then SLC25A5 C257 (UniProt P05141), with inactive: 0.0477.

As for HEXIM1 C79 (UniProt O94992), the “log2 ratio” value was inactive: 0.213. The value for ACSL3 C652 (UniProt O95573) was inactive: -0.0508; that for UniProt P04439_C363 was inactive: 0.225. On to PFN1 C71 (UniProt P07737), for which the “log2 ratio” value is inactive: 0.0488. For the target GPX1 C115 (UniProt P07203), the “log2 ratio” value was inactive: -0.0233.

Take IPO7 C757 (UniProt O95373): the “log2 ratio” value is inactive: 0.0599. Consider POLR1A C582 (UniProt O95602), for which the “log2 ratio” value was inactive: -0.0285. Take LDHA C131 (UniProt P00338): the “log2 ratio” value is inactive: -0.0391. The value for RTN3 C34 (UniProt O95197) was inactive: 0.195; that for PRPF6 C739 (UniProt O94906) was inactive: 0.148.

In the case of UniProt O96028_C1102, the “log2 ratio” value was inactive: 0.151.
